Publication doi:10.64898/2025.12.11.693769
These are yes or no findings as the source states them, for the method shown. Binding seen in cells or lysates may run through a third protein. Here binding means that the protein was enriched with, or labelled near, the bait; the list need not be complete.

B1: EzrA (protein, UniProt Q8DTQ3 1-574)
chain: MSSGIVLLIVAIVLVVIIAYLIAIIIRKRNDSLITKLEERKQNLFDLPVNDEIEEVKKLHLIGQSQTTFREWNQKWVDLSLNSFSDIENHIFEAENLNDTFNFIRAHSQINNIESQLNLAEEDIKAIREALAVLKEQEEKNSARVLHALEMYESLQASIEEGDSNFGITMPEIEKQLKNIEAEFSQFVTLNSSGDPVEASEILDRAEEHTIALGQMTEKIPAIVAKLEDDFPDQLDDLESGYRRLLEENYHFPEKNIEERFQEVREAIGNNSNELVSLDLDKAESENEAIQEKIDSLYDIFEREIRAHKNIVKSKKIIPAYLEHAKKNNEQLEAEIERLNHRYILNEKEELNVRDFNEEIASVEKDVLPIIENFDTQEKPFSVLEDKFDRAIKKLDLVEEGQLDVFNSLKNIENVEKTARQKLDSYINRLHAIKRFMEKRNLPGIPQDFLSVFFTTSAQLEALMDELNRARIHIETVNRMTEAATAAVENLEETAYRVVQNATLTEQLLQYSNRYRSFEPSVQESFDIALKLFETDYDYQGSFDEISYSLETVEPGVTDRFVSSYEKTRETIRF
B2: FtsA (protein, UniProt Q8DVE0 1-453)
chain: MARDGFFTGLDIGTSSIKVLVAEFINGSMNVIGVSNVKSSGVKDGIIIDIDTAAEAIKSAIKEAEEKAGMSISKVNVGLPANLLQIEPTQGMIPVPSESKEIKDEDVDSVVRSALTKSITPEREVISLIPEEFIVDGFQGIRDPRGMMGIRLEMRGLIYTGPSTILHNLRKTVERAGIEVENIIISPLALTKSVLNEGEREFGATVIDMGGGQTTVASMRAQELQFTNTYAEGGDYVTKDISKVLKTSHQVAEALKFNFGEANVAEASSTETVQVEVVGERNPVEITERYLSEIISARVRHLLDRIKQDLERGRLLDLPGGIVIVGGAAIMPGVVEIAQEIFGFNVKLHVPNQVGIRNPMFANIISIVEYVGTLTEVDILAQGAVSGDEKLRRKPIDIKPSGVAPKTRSFAQPQESTTLESQLEQLPPQQKEANEPKQKVGDRLRGIFGSMFD
B3: KhpB (protein, UniProt Q8DVX2 1-322)
chain: MVLFTGKTVEEAIESGLKQMGISRMKAHIRVISREKKGFLGFGRKLARVEIEGINEKTAHKADQKAVRGVPDSINKQNAPVSSSAEDTVALNHLSKTIKKLEKEDGQPLDKEIKEQVLEHKISAQEMLEQNALTTKTSAATASSEAFNQKGKQTFEDFVADAFDEVDNGADIAVASKEVSQYIQKIIYEMDLETSIETSHNRRQINLQIETPEAGRVIGYHGKVLKSLQLLAQNFLHDHYSKHFSVTLNVHDYMEHRTKILIDFAHKIAKRVLDSGKAYQMDPMSNSERKVIHKTITGIEGVESYSEGNDPNRYVVIASKGN
B4: OpuCa (protein, UniProt Q8DRU8 1-383)
chain: MDKDPVIEFKEVNKIYGDNVAVKHINLKIMAGEFVCLIGTSGSGKTTILRMINRMLKPSNGKIFIKGEEISDLNPVQLRRKIGYVIQNIGLMPHMTIYENITLVPKLLKWSEDKKKAKAKELIKLVELPEDFLDRYPYELSGGQQQRIGVVRALAADQDIILMDEPFGALDPITREGLQDLVKSLQEKTGKTIVLVTHDMDEALKLATKIVVMDKGHMVQQANPTELLRHPATAFVKKMIGEDRLIQARADVTPVKNIMLKDPVSIAPDKSLNDAISLMRQKRVDSLLVTDKDNKLLGMIDVESLNNNYKQNLVVADILNKISFYLEEDQLLRDTAHRILKRGLKYVPVIDKEWHLKGIVTRSSLVDMLYDIIWGNQDTEETL
B5: MltG (protein, UniProt Q8DSP6 1-614)
chain: MKKAKQSRKNRDISQVKKGNVAKDHQKYSDSAVQKQDKEETRTVMPIPEGNITDKDVDNVLANLDEIFAPGQLNHSDQINEKENSQQITGKQSSSLKTGSATQETETFQSKESLTLPNKKTSENKVSDVLEVKVKKTNNWVDDGEAENWQLPDLTEKLTNNNDEETKELPLSSLAEKTNSESEMKHSVKETEELLKQEKKLSSKYDKTKSQTKASSKEKDVTANLNQKRQQHYKKTNRLAKKISTVLITFILILLLGTGLFGYYYVSSAIKPLDAHSTKYIQVEIPSGSGNRMIGKILEKAGVIKNATVFNFYTKFRNYSNLQSGYYNLQKSMSLDDIAKTLKNGGTTTPQAPVLGKVVIPEGYTIKQISKAITSNANTKKKTDKTPFTAKEFLKTVKDKAFIEKMVKKYPRLLGSLPDASKVTYQLEGYLFPATYSYGEKTSIEDLIDNMLAAMDTNMQSYYDTIESQGKTVNDILTLASLVEKEGATDDDRKKIAGIFYNRINQDMPLQSNIAILYAMGKLGEKTSLKEDATINTKIDSPYNVYTNKGLMPGAVDNPSLSAIKAAVEPESTDDLYFVADVTTGEVHYAKTYEEHSANVEKYVNKKVASSSDS
B6: DivIVA (protein, UniProt Q8DVD4 1-271)
chain: MAITALEIKDKTFGTKMFGYNTQEVEEFLDIVVDDYEELVRTNREKDNRIKELEDKLGYFDEMKESLSQSVILAQETAEKVKLSANTESTNILNKATYESQQLVDAAKSKANQILRDATDEAKRIAVETEELKRQSRVFHQHLLSVVEGQLTLANSPEWTELLQPTAVYLQNSDAAFKEVVEQVLGEHVPDAADTEPIEVTRQFTPEEMEELHRRVSESNKELEETKAGQSTVDDQQPLIIEAADETKVNESADEQPNLNETQTFKLNINE
B7: SMU_1412c (protein, UniProt Q8DTD8 1-842)
chain: MLELKHITKVYETAGIKRMALENVSVNFRANEFVAVLGQSGSGKTTLLNIIGGLDQYTTGDLLINGKSTKDFKDKDWDSYRNNTIGFVFQSYNLISHQTALANVELALTLSGVSKAERRKRALDALKRVGLEDEINKKPNQMSGGQMQRVAIARALVNNPDILLADEPTGALDSETSLQIMDLLKEIAQERLVIMVTHNPDLAEKYSNRIIKVLDGHIINDSNPYTDDEIRKATVDFKKTKMSFTTALSLSFNNLLTKKGRTLLTAFAGSIGIIGIALILSLSNGVQKYIAKTQEDTLVAYPLSIEKSSNKNFIGLLAANSNENKKSDKKKTNKKIGTNSILKNMISTQVVDNDLASFKTYIKKHQKKFAAVTKDIQYSYKITPRIYQSDTSKGVKAVNPNTLSKDLKDTSTSIQTVVSNLDIWQELSSNEKMLSSQYQVISGHLPKQYNEVVLMADENNKIDDYVLYSLGIKDAKQLNSKTIKKVKASSYHYKDLIGRTYKLVINSDLYQKEGNAWIDRSDNDAYMKQVINAAENIKIVGIVKPQEGTTSESSSAGVGYSHDLTDYLAKKIKSSTIAKEQLANKKLNVFTGQSFSSGNKTFSSDNLSVQQQASMASMSAEELADYVNRYNENANATYKDNLEKIGIIDNNNPETIHFYASSFKDKEALKDLISDYNKKVKKDKHKSRVIRYTDTVGLMMSSVTTMINAVTYILIGFVAISLIVSSIMIGIITYISVLERTKEIGVLRAMGASKRDVTRIFTAETIIEGAIAGVLGILITLLLNIAITLIVKNWLNINHISSLPIWSAIVLIAISIVLTVFAGILPSRVAAKKDPVEALRTE
B8: SMU_502 (protein, UniProt Q8DVI6 1-566)
chain: MASKEKWTELFEKVIGRKPTPQEFLEGKKGFFDLKEIKKIAGVDKADDLQETSSDIKQAILGNSITAVKPDNESSKEETKSTDKPVSTEVDKSPKQLWVEAFEKTIGRQPTPEEFISGRNQDFDLAKISQLVEKESVSKTSNLAKAPFTKGKKILITLGLVCLLALVVGYIYGNQYFSREAVAQRYLKVANSNFDKALEFEVWSDTEKPIKKSELTYRNSKETRTVTMDKLTSDASQMKKVGNKFLIFPDWRVAIKPASAKISINTKGLELFINDKRVTKADSDSFSQTISRLYPGTYNFVAKGNISGQKVEVSSEEKLTNHSTINLNVKYLSFKVNSNLTDGDLYVGSRKIGTLKDGKYNVTKLAVTDTSKIYVQKSFSGKATLKSEVQSIEDVYDGDTISLDAKGVLDRDTADSLITQAYYKLDSYASSHTTPDDLDDIFTSGNHNNFYLDVKNTIDTNTTNAKNRSADSINFSDVDVTKVTQTSPTTYAVEFTVVYDFYYSYSSEHKSSGSITQKLSWSALVEYVGDNKKNSSDSYSYNSYEDYRITSDNGKSSVLSTKNTVD
B9: FtsK (protein, UniProt Q8DSX7 1-787)
chain: MAKTKNKRKGRKTRRPTKAELEKQRAIKRMVFALFMAFVLFFAIFKLGRVGVTVYNIIRLMVGSLAYPFIFAALIYLFATKWLKKHDGLVGGFVITMLGMLLEWQAYLFSLATMKDQSVIKGTLVIVFSDLSKFRVANFAGGGFLGALLYMPVAFLFSNIGSFLIGGLFLLLGLFLMSPWDVYDVMNFFKDSYAKWQVKRQENREKRFAQKEEARLLAQQAVQEAQESATFDHGLNAAIDLETGEVLDQAQTIDLDDFDGQVHKEPEIIGYQSDPEGEALEAEVPAAEQTSQLPKEEDMSDESLEVDFTPKTTLHYKLPGIDLFAKDKPKNQSKEKRLVRDNIKILEETFTSFGIKANVERAEIGPSVTKYEVKPAVGVRVNRISNLADDLALALAAQDVRIEAPIPGKSLVGIEVPNSEVATVTFRELWEQAKASPDKLLEVPLGKAVNGSVRSFDLAKMPHILVAGSTGSGKSVAVNGIIASILMKARPDQIKFMMIDPKMVELSVYNDIPHLLIPVVTNPRKASKALQKVVDEMENRYELFSHFGVRNIAGYNAKVEEFNRHSETKHIPLPLLVVIVDELADLMMVASKEVEDAIIRLGQKARAAGIHMILATQRPSVDVISGLIKANVPSRIAFAVSSGTDSRTILDENGAEKLLGRGDMLFKPIDENHPVRLQGSFISDDDVERIVSFIKEQAEADYDESFDPGEVSEDDNSNGNGGNSEGDPLFEDAKALVLETQKASASMLQRRLSVGFNRATRLMEELEEAGVIGPAEGTKPRKVLQSN
B10: PknB (protein, UniProt Q8DVK1 1-616)
chain: MIQIGKLFAGRYRILQSIGRGGMADVYLANDLILDNEEVAIKVLRTNYQTDQVAVTRFQREARAMAELNHPNIVAIRDIGEEDGQQFLAMEYVDGADLKKYIQDHAPLSNAEVIRIMKEVLSAMTLAHQKGIIHRDLKPQNVLLTKDGTAKVTDFGIAVAFAETSLTQTNSMLGSVHYLSPEQARGSKATVQSDIYAMGIMLFEMLTGHIPYDGDSAVTIALQHFQKPLPSIIAENKNVPQALENVVIKATAKRLTDRYHSTQEMLQDLRTSLQPNRSRERKLVFSDASDTKPLPKLEQAAANSLAAQSLKNKTSNQDKVDHKSKPKTKPQPKPKKKRHFLARFFKIFFILVAIGIAVLTYLVLTKPSTVSVPDVSGDKLSTAKMIIRKSGLKVGDVQKIEDDNVGAGKVVRTNPSAGSKKREGSSVDIFVASAKGFKMEDYTGQDYKDAIDNLTNNYGVSRDSIVLKEVSSDDYSGGTVIGQSPKPGKTYHPSSDKKITLKVVKVTMPNLKNSTYEEAVSTLTAMGISSSRIKAYDASDYSSEISSPSSSSLVVGQSPYYGNTVSLSSNDDIILYVSTSGGSHSGSSSSESSNSEGTTSSEASTDSSSSATTTSH

The binders below were run against DacA-FLAG (diadenylate cyclase DacA with C-terminal FLAG tag) (Streptococcus mutans) (assay: affinity purification with mass spectrometry).
For B1, the binding was “binds”. With B2 the binding was “binds”. In the case of B3, the binding is reported as “binds”. For B4, the binding was “binds”. For B5, the binding was “binds”. In the case of B6, the binding is reported as “binds”. In the case of B7, the binding is reported as “binds”. B8 was tested, and the binding was “binds”. In the case of B9, the binding is reported as “binds”. B10 was tested, and the binding was “binds”.
